Converted amounts (≈) assume the structure as drawn.

For the experiment, the system named is Candida albicans (Y0109). The experiment in a line: Antifungal evaluation, MIC (NCCLS broth dilution). Format: cell-based. The settings on record: 46 h at 35 °C, range 1.25–640 μg/mL. The method, then:
The three new polyketides 1–3 were evaluated for antifungal activity against Cryptococcus neoformans (ATCC 90113), Candida albicans (Y0109), Trichophyton rubrum (Cmccftla) and Microsporum gypseum (Cmccfmza) (Table 2), for in vitro cytotoxic activity against human cancer cell lines, HCT-116 (colon cancer), A549 (lung carcinoma), HeLa (cervical cancer), QGY-7703 (hepatocarcinoma), and MDA231 (breast adenocarcinoma) (Table 3), and protein tyrosine phosphatase 1B (PTP1B) inhibitory activity (Table 3). […] Cytotoxicity of compound 3 against A549, HeLa, QGY-7703, and MDA231 cell lines was weaker when compared to that of 1. […] The PTP1B inhibitors are recognized as potential therapeutic agents for the treatment of type II diabetes and obesity.
Antifungal IC50 values of woodylides A–C against C. neoformans were calculated as described by Ikhlas A. Khan et al.. Amphotericin B was used as the positive control. Minimal Inhibition Concentration (MIC) values of woodylides A–C were determined against three indicators (C. albicans, T. rubrum, and M. gypseum), following the […] (NCCLS) methods. Fluconazole was used as the positive control. […] The IC50 values were calculated by using the fit model 201 of XLfit 4.2 software.

`OC(Cn1cncn1)(Cn1cncn1)c1ccc(F)cc1F` [Fluconazole, reference compound] had an MIC of 0.25 µg/mL (≈ 0.816 µM).

For the origin of these results see PMC3397464, “Woodylides A–C, New Cytotoxic Linear Polyketides from the South China Sea Sponge Plakortis simplex” (Marine Drugs, 2012).
